Measurements published in US20050220906A1, “Pharmaceutical composition for treating rheumatism and the preparation thereof” (priority 2002, published 2005).

Test system: acetic acid-induced twisting reaction
Assay: Acetic acid-induced twisting reaction
Assay type: in vivo, Kuming mice
Settings: 10 mg/kg

## CN1CC[C@]23c4c5ccc(O)c4O[C@H]2[C@@H](O)C=C[C@H]3[C@H]1C5.Cl [morphine hydrochloride]
  Latent time: 0.00 ± 0.00 min
In 20 minutes
  Twisting times: 0.0 ± 0.0
